# Source: publication PMC7819943, “Rice protein-binding microarrays: a tool to detect cis-acting elements near promoter regions in rice”
# By UniProt entry, the sequences of proteins in these tests, tags left out.
# UniProt Q0JBA9, entry or part of it: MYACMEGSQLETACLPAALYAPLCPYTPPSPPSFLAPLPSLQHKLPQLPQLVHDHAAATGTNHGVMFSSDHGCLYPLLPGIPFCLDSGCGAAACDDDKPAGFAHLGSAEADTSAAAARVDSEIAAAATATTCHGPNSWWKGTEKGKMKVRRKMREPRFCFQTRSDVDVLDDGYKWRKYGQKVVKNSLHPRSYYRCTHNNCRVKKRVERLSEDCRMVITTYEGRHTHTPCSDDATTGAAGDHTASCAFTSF
# The other results are listed elsewhere or left out.
# Target: OsWRKY34 (Oryza sativa, UniProt Q0JBA9 1-250)
# Experiment: protein-binding microarray (RPBM); PBS, 2% BSA, 51.3 ng/ul salmon testes DNA, 50 uM zinc acetate, 200 nM TF, 25 C, 1 h; high values mean tight binding
# Settings: protein: recombinant; tags: N-terminal polyhistidine and DsRed monomer fusion (pET32a); label: CyDye5-dUTP incorporated in the synthesized complementary strand; 3' TTTTT single-stranded linker to array surface; dsDNA, one strand shown
# Procedure, shortened: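 Binding signal is reported as fluorescence intensity per feature (arbitrary units) from an Axon 4000B scanner. Incubation used 200 nM of each Ni–NTA-purified, N-terminally polyhistidine- and DsRed-fused transcription factor from E. coli BL21-CodonPlus on a double-stranded custom Agilent array for 1 h at 25 °C, with 50 µM zinc acetate in the buffer, followed by washing.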
row,Sequence,binding signal
1,TTCGCCGTGTTACTGTAGCTCAAATCTCTAGCTTCCCCAACGGAGTCACCTAGTGCAG,9240 fluorescence intensity (a.u.)
2,ATCCCACCTACTATCATTGTTAATTTGCAAATTATCCCTTCGGAGTCACCTAGTGCAG,9670 fluorescence intensity (a.u.)
3,TCTTGGGCTTGGGCCTTTGCTATTGTATTGGGTTGGGCCTCGGAGTCACCTAGTGCAG,8400 fluorescence intensity (a.u.)
4,CCATCTATAGCTGTTAGCCACAATAACGTATTCCCGACAACGGAGTCACCTAGTGCAG,9980 fluorescence intensity (a.u.)
5,AAAGTGCCGTATTTTTGTGTTTCTGTTGTAGTGGTAATTACGGAGTCACCTAGTGCAG,12000 fluorescence intensity (a.u.)
6,AAGAAGTCCACCAACCTCTCATCCGCTAGATCGCCAACCCCGGAGTCACCTAGTGCAG,9000 fluorescence intensity (a.u.)
7,ACTATTCATTGATGTTCCTCGCAATTTCGTTGTAAACCACCGGAGTCACCTAGTGCAG,11300 fluorescence intensity (a.u.)
8,GCCCTCCACACCATCCCGTCGCTATTCTGTTTAGCTTTAACGGAGTCACCTAGTGCAG,12900 fluorescence intensity (a.u.)
9,GCGCCGCGTCTGCTTTTGTCATATGATGCACGATTGTGCTCGGAGTCACCTAGTGCAG,8260 fluorescence intensity (a.u.)
10,TCTTGCATTGACAGCCGCATCCACCCTATATATGAATCAACGGAGTCACCTAGTGCAG,8420 fluorescence intensity (a.u.)
11,CATAAACTTCCAACTTTTTTCGTCACATCGTTTCAATTTTCGGAGTCACCTAGTGCAG,10500 fluorescence intensity (a.u.)
12,TGGTGTCTCATAATTCTCTACATGGTATCAAATACTGGTTCGGAGTCACCTAGTGCAG,9610 fluorescence intensity (a.u.)
13,GGTTTTTCTCAGTCGCATTATTGGTCCGATCCGATCCAATCGGAGTCACCTAGTGCAG,8260 fluorescence intensity (a.u.)
14,TGTTAGTAGTTTATGCATTTATTTTCTTGCACGGAAGAATCGGAGTCACCTAGTGCAG,10600 fluorescence intensity (a.u.)
15,CTCTACTCAACACATACAACTCACTGTAATTTTGGTATAACGGAGTCACCTAGTGCAG,10500 fluorescence intensity (a.u.)
16,TAGTATTTGGGATTCCGATCGATCTTGTTTCAACGTCATTCGGAGTCACCTAGTGCAG,8580 fluorescence intensity (a.u.)
17,GCCCACTCGATCGAAGCACCAACTCGCTCGCTCTCTCGCTCGGAGTCACCTAGTGCAG,12000 fluorescence intensity (a.u.)
18,CTTTGTTTCGTGTGGTTTATTGATGCAATTCTGTTCCTGTCGGAGTCACCTAGTGCAG,10500 fluorescence intensity (a.u.)
19,CGATTCTGCTCTGCGGGGAGCCCCGACGACTGGGGCGGGGCGGAGTCACCTAGTGCAG,9950 fluorescence intensity (a.u.)
20,GGGGAGGGAGCCGGGCGGGATTCAGCCATGAGGAGGAGGGCGGAGTCACCTAGTGCAG,9050 fluorescence intensity (a.u.)
21,CTTCCCGCCACCAGTGGCACCTCCATTTTCTCCGGTTTTCCGGAGTCACCTAGTGCAG,9970 fluorescence intensity (a.u.)
22,TAACCTATCCTGCTGGATTTATATGCAGATTTTTTCTCCGCGGAGTCACCTAGTGCAG,8110 fluorescence intensity (a.u.)
23,TTGGGTTGGGAATGGCTTCGTAATAATAGATGAGATTTTTCGGAGTCACCTAGTGCAG,8940 fluorescence intensity (a.u.)
24,GTTTACATACCCGTTTCAAATTTGAATTTGAATTCAAATACGGAGTCACCTAGTGCAG,9410 fluorescence intensity (a.u.)
25,GAACAGTACACTCTCTCTTCATTGATCTTGTTGACTGGTGCGGAGTCACCTAGTGCAG,9710 fluorescence intensity (a.u.)
26,ATGTCACCTGATCACCTCACCTCACCTCAGAGCATTGGCCCGGAGTCACCTAGTGCAG,8260 fluorescence intensity (a.u.)
27,CTCTCACACCGTGCCATATCCCGAACATCCCTTGATCGAACGGAGTCACCTAGTGCAG,9530 fluorescence intensity (a.u.)

# Pulled one by one from above, 3 records:
row,Sequence,binding signal
24,GTTTACATACCCGTTTCAAATTTGAATTTGAATTCAAATACGGAGTCACCTAGTGCAG,9410 fluorescence intensity (a.u.)
3,TCTTGGGCTTGGGCCTTTGCTATTGTATTGGGTTGGGCCTCGGAGTCACCTAGTGCAG,8400 fluorescence intensity (a.u.)
9,GCGCCGCGTCTGCTTTTGTCATATGATGCACGATTGTGCTCGGAGTCACCTAGTGCAG,8260 fluorescence intensity (a.u.)

# Next part.

row,Sequence,binding signal
1,TCTCCATTTTTACCTTTGCATGGCTAATAATATTTCCAACCGGAGTCACCTAGTGCAG,10800 fluorescence intensity (a.u.)
2,GGGACCCGATTTGGGCGGTATATACCTTACTTCACGTGCACGGAGTCACCTAGTGCAG,8920 fluorescence intensity (a.u.)
3,GAGACTACATGTTAGTATATCATGTTTCTTGCTCTCATTCCGGAGTCACCTAGTGCAG,8240 fluorescence intensity (a.u.)
4,CTTACTTTGACCGCAATTTTGTACATTTTAATGATTATATCGGAGTCACCTAGTGCAG,8290 fluorescence intensity (a.u.)
5,TTTTTTTCCCTGTTACCGTTTTTCCAAAATAATGTGTTCCCGGAGTCACCTAGTGCAG,8460 fluorescence intensity (a.u.)
6,TGGAAATCTGTGGTTGTGGAGGTGGATTTTTGCTTCTGCTCGGAGTCACCTAGTGCAG,8310 fluorescence intensity (a.u.)
7,CTTTCATTTACACACGACTTTTCAGTCACATCGTCTCCAACGGAGTCACCTAGTGCAG,8940 fluorescence intensity (a.u.)
8,CGGCCGCGCCGCCTATGTAGGCCTCTGGGTCCATTCACACCGGAGTCACCTAGTGCAG,9080 fluorescence intensity (a.u.)
9,CCCCGCTGCTTGTCACGCTCTCGTTGGTCGATCACTCCATCGGAGTCACCTAGTGCAG,10700 fluorescence intensity (a.u.)
10,TGTACGCGCGCGTTCATCTCCTTATATCTTCAAGCTGTCACGGAGTCACCTAGTGCAG,9140 fluorescence intensity (a.u.)
11,ACCGCTACGTTACCTTCTCCTCTCGTGCTCTTTCTCCGCCCGGAGTCACCTAGTGCAG,10200 fluorescence intensity (a.u.)
12,ATTTATGTGCATATGATACTTTTTTTTACTTGTTCATCATCGGAGTCACCTAGTGCAG,8700 fluorescence intensity (a.u.)
13,CAGTTCAATCAAACGGTCATTCCCGTGTTTTCCTGCGTTTCGGAGTCACCTAGTGCAG,11200 fluorescence intensity (a.u.)
14,GGGGCAAGGAAGGAAGGGGAGGGGAGGGGTTGGGGCGATGCGGAGTCACCTAGTGCAG,25900 fluorescence intensity (a.u.)
15,TTCAGTTAAAAGTGTTGTTGATGTTTTCCTTTCTGAAAGACGGAGTCACCTAGTGCAG,8540 fluorescence intensity (a.u.)
16,TAGTCGCCCACGGCCCCACGCGCCCACACACATTACGCAGCGGAGTCACCTAGTGCAG,8550 fluorescence intensity (a.u.)
17,CTCACCACTCAGCATAATCTGCAACAGCTTTATGAGTTGTCGGAGTCACCTAGTGCAG,8320 fluorescence intensity (a.u.)
18,ATTTTTTTTCTCACTTTCATCACTTAGTTTTGGCTTTAGACGGAGTCACCTAGTGCAG,8810 fluorescence intensity (a.u.)
19,AAATTTGTACTGTGCAAACCAGCTTTGTCTATCTTCCTCACGGAGTCACCTAGTGCAG,9890 fluorescence intensity (a.u.)
20,CCACTGTCAGTCTCTTCCGCCTCCTTTTTATTTCCTCTGTCGGAGTCACCTAGTGCAG,10800 fluorescence intensity (a.u.)
21,AAACAATTATCTAAAAACCTCACTATTAATAGAGAGATTCCGGAGTCACCTAGTGCAG,38700 fluorescence intensity (a.u.)
22,TCAAATTGGTACAACAGCGACCTTCACAGAACTTGGGAAACGGAGTCACCTAGTGCAG,9150 fluorescence intensity (a.u.)
23,ACTAAAGTGTAGGTTTCGTCTCTGCTCTTCTGCTTTTGTACGGAGTCACCTAGTGCAG,8790 fluorescence intensity (a.u.)
24,CTCCGGTTCGCTCCCACGCCCGCCACCGCCACCACCCGCCCGGAGTCACCTAGTGCAG,10100 fluorescence intensity (a.u.)
25,TACCACAGTGCTGAACACTCTCTTCCTATTACCTCTCTCACGGAGTCACCTAGTGCAG,8370 fluorescence intensity (a.u.)
26,ATGCTTATTTTATTTATGAATTGTATAGGTTCTCTTGGGCCGGAGTCACCTAGTGCAG,8250 fluorescence intensity (a.u.)
27,GTACTATACTTAGCAATTGTATGCTCTACTCTTCACTTCTCGGAGTCACCTAGTGCAG,12900 fluorescence intensity (a.u.)
